{"source": "PubChem BioAssay AID504784 (Drosophila RNAi Screening Center, 2011)", "aim": "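Fly genes whose silencing alters how much lipid cells keep in droplets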 (primary screen)", "cell system": "Drosophila Kc167 embryonic cells", "reagent": "long dsRNA against Drosophila genes, about 250 ng dsRNA per well", "duration": "4 days", "conditions": "cells fed 400 µM oleic acid bound to BSA", "measurement": "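Microscope images give a droplet-to-nucleus area ratio, taken as log and converted to a screen-wide B-score; higher values mean greater lipid storage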", "scale": "droplet/nuclear area B-score: higher = more stored lipid (overstorage)", "note": "In all, the deposit lists about 17,000 reagents; below is an unselected part of those that have a named target and a result. 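Each column is one replicate's B-score; the combined score over replicates was not deposited, so single values may mislead.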 Further read-outs or replicates are left out here."}
{"Gene":"ct","dsRNA":"DRSC18757","droplet/nuclear area B-score, replicate 1":-0.164}
{"Gene":"btv","dsRNA":"DRSC01615","droplet/nuclear area B-score, replicate 1":0.0442}
{"Gene":"btv","dsRNA":"DRSC02449","droplet/nuclear area B-score, replicate 1":-0.586}
{"Gene":"CG12617","dsRNA":"DRSC02176","droplet/nuclear area B-score, replicate 1":0.2}
{"Gene":"CG33937 (retired record)","dsRNA":"DRSC15148","droplet/nuclear area B-score, replicate 1":-0.876}
{"Gene":"CR18275","dsRNA":"DRSC18151","droplet/nuclear area B-score, replicate 1":-0.631}
{"Gene":"mira","dsRNA":"DRSC16998","droplet/nuclear area B-score, replicate 1":0.945}
{"Gene":"Psf2","dsRNA":"DRSC00516","droplet/nuclear area B-score, replicate 1":0.0702}
{"Gene":"Aldh7A1","dsRNA":"DRSC11083","droplet/nuclear area B-score, replicate 1":-0.498}
{"Gene":"CG7457","dsRNA":"DRSC10849","droplet/nuclear area B-score, replicate 1":1.17}
{"Gene":"CG9308","dsRNA":"DRSC04539","droplet/nuclear area B-score, replicate 1":-0.233}
{"Gene":"Polr2G","dsRNA":"DRSC16068","droplet/nuclear area B-score, replicate 1":-0.0173}
{"Gene":"Ran","dsRNA":"DRSC20364","droplet/nuclear area B-score, replicate 1":0.237}
{"Gene":"AsnRS","dsRNA":"DRSC01990","droplet/nuclear area B-score, replicate 1":-0.646}
{"Gene":"Ca-beta","dsRNA":"DRSC02406","droplet/nuclear area B-score, replicate 1":0.789}
{"Gene":"Ca-beta","dsRNA":"DRSC02407","droplet/nuclear area B-score, replicate 1":-2.55}
{"Gene":"Ca-beta","dsRNA":"DRSC03285","droplet/nuclear area B-score, replicate 1":0.423}
{"Gene":"Ca-beta","dsRNA":"DRSC21432","droplet/nuclear area B-score, replicate 1":0.00418}

As entered above.
Ca-beta [DRSC03285], droplet/nuclear area B-score, replicate 1 = 0.423
CG9308 [DRSC04539], droplet/nuclear area B-score, replicate 1 → -0.233
